Results are given in words; binding and its absence hold for the method and conditions named. In cells and extracts the contact can be indirect. Some binding calls cover weakened binding; strength is not graded here.
Target: Glycogen synthase kinase-3β (human (endogenous in ES/hiPSC-derived SPNs)) (UniProt P49841)
Experiment: co-IP; lysate of vehicle- and ketamine-treated SPNs in ice-cold immunoprecipitation buffer; rabbit anti-GSK-3β antibody overnight at 4 °C, Protein A/G agarose 4 h at 4 °C; rabbit IgG as negative control; detection by Western blotting

Protein sequences, listed by entry. Tags and fused reporters are not part of them.
UniProt P49841: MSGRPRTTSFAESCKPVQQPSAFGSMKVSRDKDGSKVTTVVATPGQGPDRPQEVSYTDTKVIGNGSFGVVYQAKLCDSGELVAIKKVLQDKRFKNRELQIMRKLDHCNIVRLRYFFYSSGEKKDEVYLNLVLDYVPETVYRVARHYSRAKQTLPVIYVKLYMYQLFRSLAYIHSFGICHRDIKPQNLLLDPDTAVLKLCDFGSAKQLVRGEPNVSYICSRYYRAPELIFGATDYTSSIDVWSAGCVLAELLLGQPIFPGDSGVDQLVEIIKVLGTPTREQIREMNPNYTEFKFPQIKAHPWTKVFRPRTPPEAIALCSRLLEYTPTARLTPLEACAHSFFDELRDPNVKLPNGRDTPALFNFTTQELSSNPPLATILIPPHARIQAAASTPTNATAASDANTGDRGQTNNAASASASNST
UniProt Q9UBN7: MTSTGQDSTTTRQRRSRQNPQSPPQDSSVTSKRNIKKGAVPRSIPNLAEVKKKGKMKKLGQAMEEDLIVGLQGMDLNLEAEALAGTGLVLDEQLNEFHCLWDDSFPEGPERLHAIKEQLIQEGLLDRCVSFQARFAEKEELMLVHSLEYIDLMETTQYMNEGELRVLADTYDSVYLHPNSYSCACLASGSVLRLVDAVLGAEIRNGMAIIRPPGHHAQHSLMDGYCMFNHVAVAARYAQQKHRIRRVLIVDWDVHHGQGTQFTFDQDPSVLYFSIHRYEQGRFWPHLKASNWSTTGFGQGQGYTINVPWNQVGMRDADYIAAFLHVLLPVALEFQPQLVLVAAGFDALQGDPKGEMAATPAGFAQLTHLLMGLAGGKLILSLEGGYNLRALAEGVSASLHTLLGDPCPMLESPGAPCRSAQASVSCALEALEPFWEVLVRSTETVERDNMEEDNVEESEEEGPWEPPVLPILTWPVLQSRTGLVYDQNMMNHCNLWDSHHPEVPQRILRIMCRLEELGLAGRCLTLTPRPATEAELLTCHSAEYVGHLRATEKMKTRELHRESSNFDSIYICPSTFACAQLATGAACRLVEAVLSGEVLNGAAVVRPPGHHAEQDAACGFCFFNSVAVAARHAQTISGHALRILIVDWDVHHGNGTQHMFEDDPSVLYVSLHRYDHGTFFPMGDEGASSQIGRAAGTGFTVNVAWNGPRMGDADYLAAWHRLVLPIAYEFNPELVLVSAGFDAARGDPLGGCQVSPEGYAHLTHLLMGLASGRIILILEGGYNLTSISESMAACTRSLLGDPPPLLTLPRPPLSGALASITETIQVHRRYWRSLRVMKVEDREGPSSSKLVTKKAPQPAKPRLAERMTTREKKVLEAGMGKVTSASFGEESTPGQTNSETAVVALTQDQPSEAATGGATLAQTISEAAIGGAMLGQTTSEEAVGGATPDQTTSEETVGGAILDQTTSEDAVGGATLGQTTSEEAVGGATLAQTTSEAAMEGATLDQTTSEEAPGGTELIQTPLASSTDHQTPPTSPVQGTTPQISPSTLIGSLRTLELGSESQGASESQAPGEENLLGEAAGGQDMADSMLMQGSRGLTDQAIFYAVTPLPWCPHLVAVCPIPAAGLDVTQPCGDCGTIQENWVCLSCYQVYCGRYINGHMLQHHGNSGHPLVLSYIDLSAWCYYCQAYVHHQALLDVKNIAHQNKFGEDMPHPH

Question: For “Histone deacetylase 6 (from UniProt Q9UBN7 1-1215) (enzyme)”, which binding is on record?
Answer: binds

— publication PMC11371642
